The list shows a part of the results.
Key:
Assay in all cases: log2 fold change, soluble protein after heating vs DMSO (PISA); higher = thermal stabilisation; K562 lysate, 10 uM; active = over 0.2 and 3.5 SD of the protein, either way, in both replicates (recomputed)
[1] = compound: NCC(=O)Nc1ccc(-n2nc(C(F)(F)F)cc2-c2ccc3c(ccc4ccccc43)c2)cc1
Method in brief: (§1)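 Dounce homogenisation of K562 pellets in PBS pH 7.4 with 1 mM MgCl2 produced a crude extract, used at 1 mg/mL protein. Exposure to 10 μM compound lasted 30 min, and aliquots were then heated for 3 min across 48°C-58°C, pooled and brought to 0.5% NP-40 at 4°C. The supernatant after 21,000xg for 90 min was quantified by TMTpro 16plex LC-MS/MS with channel sums equalised. Duplicate values are given as log-two fold change in thermal stability relative to solvent controls.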

Amino acid sequences for entries named in this document (tags omitted). A change or cut given only in a name is not applied to a line headed by its entry.
UniProt Q7LBR1: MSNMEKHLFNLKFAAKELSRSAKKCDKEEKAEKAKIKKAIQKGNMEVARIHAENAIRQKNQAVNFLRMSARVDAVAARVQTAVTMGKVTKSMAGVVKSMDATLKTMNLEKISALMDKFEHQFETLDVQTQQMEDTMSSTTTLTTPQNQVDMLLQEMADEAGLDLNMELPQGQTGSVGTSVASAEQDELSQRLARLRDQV
UniProt Q14008: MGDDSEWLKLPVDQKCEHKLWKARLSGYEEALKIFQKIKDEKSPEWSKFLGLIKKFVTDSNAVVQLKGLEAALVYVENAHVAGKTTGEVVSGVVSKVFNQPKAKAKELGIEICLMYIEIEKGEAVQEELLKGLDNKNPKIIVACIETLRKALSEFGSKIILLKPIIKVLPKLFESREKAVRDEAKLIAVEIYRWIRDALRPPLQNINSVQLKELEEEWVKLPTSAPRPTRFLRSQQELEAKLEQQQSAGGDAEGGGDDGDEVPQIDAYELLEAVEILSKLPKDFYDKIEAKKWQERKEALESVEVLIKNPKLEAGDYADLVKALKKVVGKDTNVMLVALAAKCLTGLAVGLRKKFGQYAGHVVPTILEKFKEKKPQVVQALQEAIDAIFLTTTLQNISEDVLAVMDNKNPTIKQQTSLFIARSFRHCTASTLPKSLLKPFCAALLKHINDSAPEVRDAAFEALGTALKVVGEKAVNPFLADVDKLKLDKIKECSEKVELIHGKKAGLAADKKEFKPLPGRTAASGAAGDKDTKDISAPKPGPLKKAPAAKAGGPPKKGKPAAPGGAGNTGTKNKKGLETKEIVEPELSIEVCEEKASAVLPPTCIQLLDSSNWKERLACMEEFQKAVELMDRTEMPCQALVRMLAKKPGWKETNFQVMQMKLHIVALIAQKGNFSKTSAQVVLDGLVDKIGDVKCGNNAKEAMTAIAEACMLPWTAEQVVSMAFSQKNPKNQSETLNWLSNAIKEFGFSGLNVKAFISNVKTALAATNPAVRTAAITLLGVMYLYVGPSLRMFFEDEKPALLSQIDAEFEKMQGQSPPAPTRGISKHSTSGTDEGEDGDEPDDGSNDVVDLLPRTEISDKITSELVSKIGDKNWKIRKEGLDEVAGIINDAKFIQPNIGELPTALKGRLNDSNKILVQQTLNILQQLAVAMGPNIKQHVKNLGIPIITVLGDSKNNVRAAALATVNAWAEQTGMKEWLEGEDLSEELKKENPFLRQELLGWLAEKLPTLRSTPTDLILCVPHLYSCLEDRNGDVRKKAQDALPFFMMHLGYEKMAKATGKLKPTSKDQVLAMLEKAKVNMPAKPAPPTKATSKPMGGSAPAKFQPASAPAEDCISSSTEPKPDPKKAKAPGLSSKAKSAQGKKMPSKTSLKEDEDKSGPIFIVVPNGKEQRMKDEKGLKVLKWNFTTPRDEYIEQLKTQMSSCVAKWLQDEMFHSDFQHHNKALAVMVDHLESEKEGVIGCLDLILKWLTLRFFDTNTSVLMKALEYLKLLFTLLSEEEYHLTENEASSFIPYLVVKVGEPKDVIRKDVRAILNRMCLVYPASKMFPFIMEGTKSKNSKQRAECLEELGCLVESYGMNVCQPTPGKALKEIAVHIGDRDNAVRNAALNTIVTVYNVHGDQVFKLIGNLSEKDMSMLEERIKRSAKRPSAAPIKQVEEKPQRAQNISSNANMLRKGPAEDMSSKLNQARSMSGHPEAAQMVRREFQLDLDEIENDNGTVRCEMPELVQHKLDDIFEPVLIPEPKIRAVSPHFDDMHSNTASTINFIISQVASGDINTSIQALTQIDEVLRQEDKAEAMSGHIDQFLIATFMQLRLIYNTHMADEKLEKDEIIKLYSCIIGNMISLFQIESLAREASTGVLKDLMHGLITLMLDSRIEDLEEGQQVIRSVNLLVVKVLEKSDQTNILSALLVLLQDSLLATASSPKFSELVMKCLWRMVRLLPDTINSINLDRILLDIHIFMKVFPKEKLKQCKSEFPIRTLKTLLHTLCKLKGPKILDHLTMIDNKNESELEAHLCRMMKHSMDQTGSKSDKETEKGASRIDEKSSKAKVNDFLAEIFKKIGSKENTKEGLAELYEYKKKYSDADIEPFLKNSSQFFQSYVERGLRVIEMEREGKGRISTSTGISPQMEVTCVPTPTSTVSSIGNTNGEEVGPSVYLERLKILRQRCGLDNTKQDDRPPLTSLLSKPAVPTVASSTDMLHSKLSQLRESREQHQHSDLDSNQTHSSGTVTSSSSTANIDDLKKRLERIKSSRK
UniProt P26374: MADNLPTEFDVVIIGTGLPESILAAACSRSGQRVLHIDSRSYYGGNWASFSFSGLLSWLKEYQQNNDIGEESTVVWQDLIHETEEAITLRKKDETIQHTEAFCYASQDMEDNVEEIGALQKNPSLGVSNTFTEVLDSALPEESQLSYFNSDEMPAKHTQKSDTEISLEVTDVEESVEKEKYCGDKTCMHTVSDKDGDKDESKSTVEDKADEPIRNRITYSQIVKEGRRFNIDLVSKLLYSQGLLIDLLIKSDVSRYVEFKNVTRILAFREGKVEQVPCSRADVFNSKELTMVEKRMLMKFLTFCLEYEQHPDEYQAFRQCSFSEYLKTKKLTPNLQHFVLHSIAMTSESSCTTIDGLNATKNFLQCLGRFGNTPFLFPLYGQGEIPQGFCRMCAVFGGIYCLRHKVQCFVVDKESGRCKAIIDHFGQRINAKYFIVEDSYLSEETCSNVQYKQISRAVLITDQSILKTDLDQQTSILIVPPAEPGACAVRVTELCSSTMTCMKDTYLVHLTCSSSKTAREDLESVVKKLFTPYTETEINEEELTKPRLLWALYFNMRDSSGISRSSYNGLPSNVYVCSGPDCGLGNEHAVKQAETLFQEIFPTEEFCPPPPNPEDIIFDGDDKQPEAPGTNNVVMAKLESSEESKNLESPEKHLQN
UniProt Q9UBY8, whole entry, looked up: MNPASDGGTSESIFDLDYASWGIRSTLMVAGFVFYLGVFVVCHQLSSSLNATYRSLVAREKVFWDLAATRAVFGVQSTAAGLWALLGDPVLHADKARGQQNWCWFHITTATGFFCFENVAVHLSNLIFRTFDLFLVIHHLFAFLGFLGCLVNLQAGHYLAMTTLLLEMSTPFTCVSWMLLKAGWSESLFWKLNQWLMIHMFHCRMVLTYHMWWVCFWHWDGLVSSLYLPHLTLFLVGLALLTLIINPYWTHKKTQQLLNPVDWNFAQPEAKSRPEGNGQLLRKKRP
UniProt P33552, whole entry, looked up: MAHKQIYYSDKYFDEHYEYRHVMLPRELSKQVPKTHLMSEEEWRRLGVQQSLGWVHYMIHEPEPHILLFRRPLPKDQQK
UniProt P56749: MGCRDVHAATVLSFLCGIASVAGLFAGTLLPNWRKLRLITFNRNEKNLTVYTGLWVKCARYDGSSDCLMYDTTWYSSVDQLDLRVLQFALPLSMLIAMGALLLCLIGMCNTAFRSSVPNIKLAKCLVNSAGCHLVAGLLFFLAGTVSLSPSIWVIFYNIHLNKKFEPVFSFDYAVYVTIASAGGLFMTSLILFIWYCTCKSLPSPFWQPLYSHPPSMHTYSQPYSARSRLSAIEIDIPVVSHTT
UniProt O94985: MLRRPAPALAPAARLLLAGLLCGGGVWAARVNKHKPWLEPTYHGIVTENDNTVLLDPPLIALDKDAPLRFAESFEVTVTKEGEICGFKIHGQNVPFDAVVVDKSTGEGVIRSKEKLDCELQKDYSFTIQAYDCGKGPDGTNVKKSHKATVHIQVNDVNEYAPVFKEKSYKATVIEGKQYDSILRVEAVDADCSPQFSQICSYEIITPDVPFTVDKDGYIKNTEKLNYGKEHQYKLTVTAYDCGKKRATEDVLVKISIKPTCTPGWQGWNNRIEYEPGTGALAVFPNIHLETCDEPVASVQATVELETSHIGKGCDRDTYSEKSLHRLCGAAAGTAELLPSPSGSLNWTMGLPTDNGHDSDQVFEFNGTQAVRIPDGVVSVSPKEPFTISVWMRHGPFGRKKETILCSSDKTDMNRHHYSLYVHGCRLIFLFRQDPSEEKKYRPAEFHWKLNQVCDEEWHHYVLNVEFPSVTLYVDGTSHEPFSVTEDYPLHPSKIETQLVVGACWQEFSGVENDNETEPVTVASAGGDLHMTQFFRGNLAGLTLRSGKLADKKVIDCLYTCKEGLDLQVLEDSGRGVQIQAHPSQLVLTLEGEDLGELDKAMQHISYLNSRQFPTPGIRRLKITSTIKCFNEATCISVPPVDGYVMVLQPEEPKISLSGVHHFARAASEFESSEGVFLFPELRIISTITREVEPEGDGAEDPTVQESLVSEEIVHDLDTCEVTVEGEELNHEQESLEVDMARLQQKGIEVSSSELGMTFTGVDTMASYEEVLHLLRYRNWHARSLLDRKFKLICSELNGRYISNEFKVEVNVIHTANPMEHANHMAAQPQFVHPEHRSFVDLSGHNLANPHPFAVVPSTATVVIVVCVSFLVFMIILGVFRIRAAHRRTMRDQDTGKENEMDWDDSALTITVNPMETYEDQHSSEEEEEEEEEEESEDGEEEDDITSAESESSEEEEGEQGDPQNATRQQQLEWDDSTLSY
UniProt Q9UDT6: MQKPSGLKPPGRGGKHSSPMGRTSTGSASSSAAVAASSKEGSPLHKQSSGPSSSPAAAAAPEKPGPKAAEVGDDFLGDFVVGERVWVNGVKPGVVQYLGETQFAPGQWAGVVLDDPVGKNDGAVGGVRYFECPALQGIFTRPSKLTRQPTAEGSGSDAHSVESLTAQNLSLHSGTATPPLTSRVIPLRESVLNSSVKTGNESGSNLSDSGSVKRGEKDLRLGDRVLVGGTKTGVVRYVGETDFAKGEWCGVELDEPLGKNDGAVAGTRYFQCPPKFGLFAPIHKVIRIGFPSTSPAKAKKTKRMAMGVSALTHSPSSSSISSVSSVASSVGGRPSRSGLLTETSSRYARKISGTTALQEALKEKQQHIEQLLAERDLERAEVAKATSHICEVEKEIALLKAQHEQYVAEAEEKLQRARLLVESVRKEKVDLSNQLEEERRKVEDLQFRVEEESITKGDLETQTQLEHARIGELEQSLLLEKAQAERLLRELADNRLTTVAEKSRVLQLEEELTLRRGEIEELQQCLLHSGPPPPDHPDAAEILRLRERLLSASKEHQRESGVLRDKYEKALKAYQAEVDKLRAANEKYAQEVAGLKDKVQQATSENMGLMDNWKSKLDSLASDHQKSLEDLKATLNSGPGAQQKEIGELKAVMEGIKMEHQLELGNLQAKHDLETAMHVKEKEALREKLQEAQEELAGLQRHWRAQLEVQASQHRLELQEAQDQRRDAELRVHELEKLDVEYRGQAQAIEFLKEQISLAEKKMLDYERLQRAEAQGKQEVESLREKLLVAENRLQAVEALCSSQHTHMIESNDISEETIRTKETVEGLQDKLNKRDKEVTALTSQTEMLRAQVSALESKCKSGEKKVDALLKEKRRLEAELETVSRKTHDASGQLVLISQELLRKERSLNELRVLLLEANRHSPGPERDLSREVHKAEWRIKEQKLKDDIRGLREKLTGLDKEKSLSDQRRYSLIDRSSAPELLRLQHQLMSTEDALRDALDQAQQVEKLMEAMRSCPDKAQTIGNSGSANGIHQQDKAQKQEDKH
UniProt Q86X52: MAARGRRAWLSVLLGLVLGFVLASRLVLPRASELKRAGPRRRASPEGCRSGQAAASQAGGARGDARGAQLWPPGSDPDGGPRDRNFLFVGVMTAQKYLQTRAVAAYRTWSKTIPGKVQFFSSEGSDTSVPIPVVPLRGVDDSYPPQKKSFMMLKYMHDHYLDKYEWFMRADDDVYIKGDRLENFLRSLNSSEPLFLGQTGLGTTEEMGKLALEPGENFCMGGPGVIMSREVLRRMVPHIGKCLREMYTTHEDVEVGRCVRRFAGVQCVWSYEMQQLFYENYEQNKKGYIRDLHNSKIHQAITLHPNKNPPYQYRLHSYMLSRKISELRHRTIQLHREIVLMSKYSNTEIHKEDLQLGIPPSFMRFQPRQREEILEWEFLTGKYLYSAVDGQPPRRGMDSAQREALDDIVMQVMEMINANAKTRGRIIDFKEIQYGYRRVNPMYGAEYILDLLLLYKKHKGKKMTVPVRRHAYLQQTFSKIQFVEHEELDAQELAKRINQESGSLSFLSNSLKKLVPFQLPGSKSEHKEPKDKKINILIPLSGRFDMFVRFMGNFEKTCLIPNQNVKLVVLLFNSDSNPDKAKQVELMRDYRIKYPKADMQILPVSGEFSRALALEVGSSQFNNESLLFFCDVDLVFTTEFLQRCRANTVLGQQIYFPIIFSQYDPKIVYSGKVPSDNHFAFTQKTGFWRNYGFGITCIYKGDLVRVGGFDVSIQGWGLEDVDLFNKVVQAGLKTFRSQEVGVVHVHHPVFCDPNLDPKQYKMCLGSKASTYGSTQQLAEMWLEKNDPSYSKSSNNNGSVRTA
UniProt P56277: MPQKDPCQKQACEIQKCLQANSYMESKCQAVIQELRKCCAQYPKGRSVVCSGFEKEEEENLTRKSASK
UniProt P62633: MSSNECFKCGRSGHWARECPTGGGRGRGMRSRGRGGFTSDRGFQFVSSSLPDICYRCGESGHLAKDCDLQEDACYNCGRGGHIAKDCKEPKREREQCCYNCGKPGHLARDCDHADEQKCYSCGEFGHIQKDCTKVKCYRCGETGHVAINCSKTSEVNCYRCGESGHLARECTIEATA

vorinostat = compound: O=C(CCCCCCC(=O)Nc1ccccc1)NO [vorinostat]
Method in brief: as §1

silmitasertib = compound: O=C(O)c1ccc2c(c1)nc(Nc1cccc(Cl)c1)c1ccncc12 [silmitasertib]
Method in brief: as §1

[2] = compound: O=C1NC(=O)C(c2cnc3ccccn23)=C1c1cn2c3c(cc(F)cc13)CN(C(=O)N1CCCCC1)CC2
Method in brief: as §1

entospletinib = compound: c1cn2cc(-c3ccc4cn[nH]c4c3)nc(Nc3ccc(N4CCOCC4)cc3)c2n1 [entospletinib]
Method in brief: as §1

Row | Target | log2 fold change [1] | log2 fold change (vorinostat) | log2 fold change (silmitasertib) | log2 fold change [2] | log2 fold change (entospletinib)
1 | CHD1L (UniProt Q86WJ1) | inactive: 0.01 | active: -0.277 | inactive: 0.015 | inactive: 0.164 | inactive: 0.046
2 | CHID1 (UniProt Q9BWS9) | inactive: 0.008 | inactive: 0.067 | inactive: -0.018 | inactive: 0.027 | inactive: 0.007
3 | CHMP1B (UniProt Q7LBR1) | inactive: -0.068 | inactive: 0.127 | inactive: 0.027 | inactive: -0.024 | inactive: -0.001
4 | CHFR (UniProt Q96EP1) | inactive: -0.219 | inactive: -0.143 | inactive: 0.057 | inactive: 0.004 | inactive: -0.083
5 | CKAP5 (UniProt Q14008) | inactive: -0.013 | active: -0.269 | inactive: 0.011 | inactive: 0.002 | inactive: 0.005
6 | CHIC2 (UniProt Q9UKJ5) | inactive: -0.014 | inactive: -0.04 | inactive: 0.094 | – | inactive: -0.066
7 | CLASP2 (UniProt O75122) | inactive: 0.052 | – | – | inactive: 0.194 | inactive: -0.073
8 | CHML (UniProt P26374) | inactive: 0.029 | active: -0.286 | inactive: 0.003 | inactive: -0.022 | inactive: 0.006
9 | CLUH, A0A494C0R8 | inactive: -0.115 | inactive: 0.028 | inactive: 0.069 | inactive: 0.033 | inactive: 0.033
10 | CLCN6 isoform 5 (UniProt P51797) | inactive: 0.178 | inactive: 0.07 | inactive: -0.002 | inactive: 0.009 | inactive: 0.034
11 | CLN8 (UniProt Q9UBY8) | – | inactive: -0.139 | inactive: 0.045 | inactive: -0.013 | inactive: -0.055
12 | CLCN2 (UniProt P51788) | – | inactive: 0.034 | inactive: -0.218 | inactive: -0.061 | inactive: 0.178
13 | CITED2 (UniProt Q99967) | – | inactive: -0.004 | inactive: -0.036 | – | –
14 | CKS2 (UniProt P33552) | inactive: -0.266 | – | – | – | inactive: -0.136
15 | CMTM6 (UniProt Q9NX76) | – | inactive: 0.138 | inactive: -0.149 | inactive: 0.044 | inactive: -0.122
16 | CHPF (UniProt Q8IZ52) | – | inactive: 0.083 | inactive: 0.018 | inactive: -0.189 | inactive: 0.029
17 | CKLF (UniProt Q9UBR5) | – | – | – | inactive: 0.044 | –
18 | CLDN12 (UniProt P56749) | – | inactive: -0.086 | inactive: 0.167 | inactive: 0.087 | inactive: 0.05
19 | CIR1 (UniProt Q86X95) | – | – | – | inactive: -0.047 | inactive: 0.038
20 | CLN3 (UniProt Q13286) | – | inactive: 0.046 | inactive: -0.038 | – | –
21 | CLK2 (UniProt P49760) | – | – | – | inactive: 0.017 | –
22 | CLEC16A isoform 2 (UniProt Q2KHT3) | – | inactive: 0.088 | inactive: 0.098 | inactive: 0.036 | –

Looked up one by one from above:
Row | Target | log2 fold change [1] | log2 fold change (vorinostat) | log2 fold change (silmitasertib) | log2 fold change [2] | log2 fold change (entospletinib)
21 | CLK2 (UniProt P49760) | – | – | – | inactive: 0.017 | –
4 | CHFR (UniProt Q96EP1) | inactive: -0.219 | inactive: -0.143 | inactive: 0.057 | inactive: 0.004 | inactive: -0.083

(further entries)

Row | Target | log2 fold change [1] | log2 fold change (vorinostat) | log2 fold change (silmitasertib) | log2 fold change [2] | log2 fold change (entospletinib)
23 | CHCHD5 (UniProt Q9BSY4) | – | inactive: 0 | inactive: 0.028 | inactive: 0.017 | –
24 | CHMP4A (UniProt H0YIN6) | – | – | – | inactive: 0.287 | –
25 | CKAP4 (UniProt Q07065) | – | – | – | inactive: -0.045 | inactive: 0.085
26 | CLSTN3 isoform 2 (UniProt Q9BQT9) | – | inactive: 0.164 | inactive: 0 | inactive: -0.082 | –
27 | CLSTN1 (UniProt O94985) | – | – | – | inactive: -0.138 | inactive: -0.142
28 | CLIP1 isoform 2 (UniProt P30622) | – | inactive: 0.167 | inactive: -0.035 | inactive: 0.002 | inactive: -0.151
29 | CLK1 isoform 3 (UniProt P49759) | – | inactive: 0.119 | inactive: 0.045 | – | inactive: -0.21
30 | CHST14 (UniProt Q8NCH0) | – | – | – | inactive: -0.006 | –
31 | CHST2 (UniProt Q9Y4C5) | – | – | – | inactive: -0.003 | –
32 | CLIP2 (UniProt Q9UDT6) | – | inactive: 0.033 | inactive: -0.1 | inactive: -0.032 | inactive: 0.002
33 | CLEC11A (UniProt Q9Y240) | – | inactive: 0.137 | inactive: -0.098 | inactive: -0.101 | inactive: -0.101
34 | CHSY1 (UniProt Q86X52) | – | inactive: 0.238 | inactive: -0.207 | – | –
35 | CLDN7 (UniProt O95471) | – | – | – | – | inactive: -0.108
36 | CHURC1-FNTB (UniProt B4DL54) | – | – | – | inactive: 0.103 | inactive: -0.048
37 | CHCHD7 isoform 4 (UniProt Q9BUK0) | inactive: -0.031 | – | – | inactive: -0.066 | inactive: 0.008
38 | CMC4 (UniProt P56277) | – | inactive: 0.108 | inactive: 0.085 | inactive: 0.042 | –
39 | CHTF8 (UniProt P0CG13) | – | inactive: -0.154 | inactive: 0.153 | inactive: -0.093 | inactive: -0.047
40 | CNBP (UniProt P62633) | – | inactive: -0.539 | inactive: 0.161 | – | –
41 | CHTF18 (UniProt Q8WVB6) | – | inactive: -0.334 | inactive: 0.258 | inactive: 0.069 | inactive: 0.072
42 | CLCN5 isoform 2 (UniProt P51795) | – | inactive: -0.055 | inactive: -0.013 | – | –
43 | CHD4, A0A2R8Y521 | – | – | – | – | inactive: -0.313
